Results are given in words; binding and its absence hold for the method and conditions named. Binding seen in cells or lysates may run through a third protein.
Experiments:
[1] = target: T1, endogenous human Nmi (human (endogenous in U251 and human foreskin fibroblasts)) (UniProt Q13287); assay: condition: only in cells infected with viruses that express UL23 (TowneBAC, R-ΔUL23, R-stop); co-IP; IFN-γ-treated U251 cells infected with TowneBAC or the rescued viruses R-ΔUL23 and R-stop (MOI = 1) at 12 h post-treatment, lysates at 24-48 h postinfection; IP with anti-UL23, anti-Nmi or …
T1 sequence: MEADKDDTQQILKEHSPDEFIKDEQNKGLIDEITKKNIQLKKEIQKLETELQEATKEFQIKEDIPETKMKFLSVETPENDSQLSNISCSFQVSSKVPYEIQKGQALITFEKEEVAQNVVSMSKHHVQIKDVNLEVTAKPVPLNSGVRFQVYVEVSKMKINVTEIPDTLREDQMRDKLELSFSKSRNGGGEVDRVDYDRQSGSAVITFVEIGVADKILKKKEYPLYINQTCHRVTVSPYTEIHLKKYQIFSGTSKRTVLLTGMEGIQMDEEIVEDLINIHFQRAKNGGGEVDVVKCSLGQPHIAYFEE

By UniProt entry, the sequences of proteins in these tests, tags left out.
UniProt P42224: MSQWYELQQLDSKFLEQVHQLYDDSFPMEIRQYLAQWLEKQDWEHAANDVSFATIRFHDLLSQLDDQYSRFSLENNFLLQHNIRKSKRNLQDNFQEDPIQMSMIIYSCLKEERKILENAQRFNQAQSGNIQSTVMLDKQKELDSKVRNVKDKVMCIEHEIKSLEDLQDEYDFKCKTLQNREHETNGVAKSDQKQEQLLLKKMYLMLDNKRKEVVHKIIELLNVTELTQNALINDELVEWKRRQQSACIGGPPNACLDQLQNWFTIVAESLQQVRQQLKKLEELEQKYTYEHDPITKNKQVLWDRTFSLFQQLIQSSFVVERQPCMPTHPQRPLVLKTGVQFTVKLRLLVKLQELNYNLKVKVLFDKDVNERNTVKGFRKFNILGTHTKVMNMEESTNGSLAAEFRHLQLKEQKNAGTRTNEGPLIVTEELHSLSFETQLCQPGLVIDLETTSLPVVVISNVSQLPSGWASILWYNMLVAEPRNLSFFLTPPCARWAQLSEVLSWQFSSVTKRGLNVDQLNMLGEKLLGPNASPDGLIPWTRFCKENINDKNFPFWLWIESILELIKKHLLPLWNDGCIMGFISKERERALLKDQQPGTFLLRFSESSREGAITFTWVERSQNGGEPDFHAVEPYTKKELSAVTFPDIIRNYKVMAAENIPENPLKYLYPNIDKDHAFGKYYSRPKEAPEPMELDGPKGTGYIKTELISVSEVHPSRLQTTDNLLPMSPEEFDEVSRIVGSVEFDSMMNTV
UniProt P16790: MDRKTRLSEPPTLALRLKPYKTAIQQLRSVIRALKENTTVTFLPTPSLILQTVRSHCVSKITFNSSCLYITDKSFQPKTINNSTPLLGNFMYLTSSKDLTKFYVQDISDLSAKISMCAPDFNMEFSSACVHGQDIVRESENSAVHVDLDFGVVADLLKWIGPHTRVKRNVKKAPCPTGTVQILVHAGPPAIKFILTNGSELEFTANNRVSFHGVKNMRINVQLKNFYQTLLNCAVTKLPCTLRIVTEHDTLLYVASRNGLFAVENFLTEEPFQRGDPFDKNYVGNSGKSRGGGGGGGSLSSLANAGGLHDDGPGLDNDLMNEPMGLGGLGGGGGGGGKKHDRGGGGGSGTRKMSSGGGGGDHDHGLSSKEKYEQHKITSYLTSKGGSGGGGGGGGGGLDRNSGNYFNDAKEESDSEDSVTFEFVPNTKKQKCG

[2] = target: T1, endogenous human Nmi (human (endogenous in U251 and human foreskin fibroblasts)); assay: condition: only in cells with pCMV-FLAG-UL23, which express FLAG-tagged UL23; co-IP; cells containing pCMV-FLAG-UL23, as for U251-UL23 cells
[3] = target: T1, endogenous human Nmi (human (endogenous in U251 and human foreskin fibroblasts)); assay: condition: only in U251-UL23 cells, which express UL23; co-IP; U251-UL23 cells (pCDNA-UL23) treated with IFN-γ (1000 U/ml) for 12 h; IP with anti-UL23, anti-Nmi or anti-STAT1
[4] = target: T1, endogenous human Nmi (human (endogenous in U251 and human foreskin fibroblasts)); assay: condition: only in fibroblasts infected with viruses that express UL23; co-IP; IFN-γ-treated human foreskin fibroblasts infected with TowneBAC or the rescued viruses
[5] = target: T1, endogenous human Nmi (human (endogenous in U251 and human foreskin fibroblasts)); assay: co-IP; U251 cells infected with HCMV (MOI = 1), lysates at 48-72 h postinfection; IP with anti-UL23, anti-UL44 or anti-Nmi, blots for UL23, UL44 and Nmi

| Substance | binding [1] | binding [2] | binding [3] | binding [4] | binding [5] |
| --- | --- | --- | --- | --- | --- |
| endogenous human STAT1 (from UniProt P42224 1-750) | no binding | no binding | no binding | no binding | – |
| HCMV polymerase processivity factor, UL44 protein (from UniProt P16790 1-433) | – | – | – | – | no binding |

Source: article PMC5805366
